Experimental data published in PubChem BioAssay AID1671190 (National Center for Advancing Translational Sciences (NCATS), 2021).
About 6,100 (1.1%) of roughly 580,000 compounds were called active. Inconclusive means that the source gave no clear call. Such entries were picked first, then a sample of the others. Calls follow the shape of the dose curve; as a rule, active = well fitted inhibition curve with a large enough effect; inconclusive = small, poorly fitted or top-dose-only effect, or another doubt; inactive = no such curve, though single readings can be large or run the other way. Potencies beside an inconclusive call are fits to weak or partial responses and may not hold up.

Amino acid sequences for entries named in this document (tags omitted). A change or cut given only in a name is not applied to a line headed by its entry.
UniProt P18054: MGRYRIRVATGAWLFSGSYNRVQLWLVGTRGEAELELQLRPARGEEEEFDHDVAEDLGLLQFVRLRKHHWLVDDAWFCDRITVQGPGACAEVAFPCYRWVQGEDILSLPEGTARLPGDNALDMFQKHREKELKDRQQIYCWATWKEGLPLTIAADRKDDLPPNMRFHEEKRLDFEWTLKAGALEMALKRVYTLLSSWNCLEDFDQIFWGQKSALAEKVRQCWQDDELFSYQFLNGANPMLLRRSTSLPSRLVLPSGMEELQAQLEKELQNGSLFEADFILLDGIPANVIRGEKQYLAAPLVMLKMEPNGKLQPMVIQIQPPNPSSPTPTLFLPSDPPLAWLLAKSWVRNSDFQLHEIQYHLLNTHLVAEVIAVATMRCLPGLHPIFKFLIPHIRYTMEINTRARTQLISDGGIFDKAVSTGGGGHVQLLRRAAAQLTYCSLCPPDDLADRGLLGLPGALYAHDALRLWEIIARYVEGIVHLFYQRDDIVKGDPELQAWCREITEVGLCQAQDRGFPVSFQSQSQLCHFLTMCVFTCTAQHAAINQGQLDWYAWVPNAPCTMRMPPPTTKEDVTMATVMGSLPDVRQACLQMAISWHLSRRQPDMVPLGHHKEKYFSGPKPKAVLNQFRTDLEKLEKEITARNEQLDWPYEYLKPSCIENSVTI

What follows are compounds tested against Polyunsaturated fatty acid lipoxygenase ALOX12 (Homo sapiens) (UniProt P18054) (assay: Primary qHTS assay for inhibitors of human arachidonate 12S-lipoxygenase (ALOX12): Round 2). Conditions: purified 12hLO, xylenol orange hydroperoxide absorbance; activity change, negative = inhibition: at 108 µM (top of the series) unless noted.
Method in brief: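 Purified human 12hLO at 150 nM in 25 mM Hepes, 0.01% Triton X-100, pH 7.0, preincubated 15 min at room temperature with compound. Reaction started with 40 uM arachidonic acid, 30 min at room temperature. Hydroperoxide measured by Fe-xylenol orange, 573/405 nm absorbance ratio.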
% is scaled to controls: 0 for no effect and ±100 for the full control effect; potency is read from the fitted curve at half-maximal effect.

Q: With `O=C(Nc1ccc2c(c1)OCO2)c1cc2ncc(Br)cn2n1` as the compound, how does the Potency read?
A: inconclusive: 20 µM [inhibitor, partial curve, poor fit]

Q: For `O=C(N1CCCCCC1)n1c(Cc2ccccc2)nc2ccccc21`, which Potency is on record?
A: inconclusive: 56.2 µM [inhibitor, partial curve, poor fit]

Q: With `Cc1cccc2sc(NC(=O)c3ccc[n+]([O-])c3)nc12` as the compound, how does the Potency read?
A: inconclusive: 141 µM [inhibitor, partial curve, poor fit]

Q: Which “activity change, negative = inhibition” value does the source give for `Cc1ccc2[nH]c(=O)c(CN(Cc3cccnc3)Cc3nnnn3CC3CCCO3)cc2c1` (stereo not drawn) here?
A: inactive: 12.1%

Q: How did the “activity change, negative = inhibition” value turn out when `COc1ccc(N2CCN(C(=O)c3cc(-c4cc(OC)ccc4OC)nc4ccccc34)CC2)cc1` was run?
A: inactive: 12.1%

Q: Which Potency does the source give for `COc1cc(C(=O)Nc2nc3ccc(S(C)(=O)=O)cc3s2)cc(OC)c1C` here?
A: inconclusive: 50.1 µM [inhibitor, partial curve, poor fit]

Q: `CC(OC(=O)c1cc(S(=O)(=O)Nc2ccc(F)cc2)ccc1Cl)C(=O)Nc1ccc2c(c1)OCCO2` (stereo not drawn) was tested. Which Potency did it give?
A: inconclusive: 112 µM [inhibitor, partial curve, poor fit]

Q: How did the Potency turn out when `Cc1ccc(C(=O)NCCNC(=O)CN2CCOCC2)cc1` was run?
A: inconclusive: 31.6 µM [inhibitor, single point]

Q: With `CC(=O)Nc1ccc(CN2CCCC(N3CCN(c4ccccc4)CC3)C2)cc1` (stereo not drawn) as the compound, how does the Potency read?
A: inconclusive: 17.8 µM [inhibitor, full curve, poor fit]

Q: Which Potency does the source give for `COCc1ccccc1CNC(=O)CC(C)(C)C` here?
A: inconclusive: 100 µM [inhibitor, partial curve, poor fit]

Q: How did the Potency turn out when `COC1=CC(=O)OC(c2cccc(C(F)(F)F)c2)C1` (stereo not drawn) was run?
A: inconclusive: 112 µM [inhibitor, single point]

Q: How did the “activity change, negative = inhibition” value turn out when `O=C(CC(=O)c1cc(Cl)ccc1O)c1ccccc1` was run?
A: inactive: -6.62%

Q: For `O=[N+]([O-])c1ccc(CSc2ccc(S(=O)(=O)N3CCOCC3)cn2)cc1`, which “activity change, negative = inhibition” value is on record?
A: inactive: -20.5%

Q: For `COc1ccc(NC(=O)c2sc3nc(-c4ccc(OC)cc4)cc(C(F)(F)F)c3c2N)cc1`, which “activity change, negative = inhibition” value is on record?
A: inactive: 6.53%

Q: For `CC(C)C(OC(=O)C1=Cc2ccccc2OC1)C(=O)NCC1CCCO1` (stereo not drawn), which Potency is on record?
A: inconclusive: 3.16 µM [inhibitor, full curve, poor fit]

Q: `CC(=O)Nc1ccc(S(=O)(=O)NNC(=O)COc2cccc(C)c2)cc1` was tested. Which Potency did it give?
A: inconclusive: 17.8 µM [inhibitor, single point]

Q: Which Potency does the source give for `COCC(=O)N(C)[C@H]1C[C@H]2c3[nH]c4c(-c5ccccc5)cccc4c3CCN2C(=O)[C@H]1[C@H](C)O` here?
A: inconclusive: 39.8 µM [inhibitor, partial curve, poor fit]

Q: With `O=C(C[C@@H]1CCNC[C@@H]1Cc1cc(-c2ccccc2)on1)N1CCC(n2c(=O)[nH]c3ccccc32)CC1` as the compound, how does the Potency read?
A: inconclusive: 17.8 µM [inhibitor, full curve]

Q: For `COc1ccc(C(=O)Cc2cnn(-c3ccccc3)c2)c(O)c1`, which Potency is on record?
A: inconclusive: 3.16 µM [inhibitor, partial curve, poor fit]

Q: How did the Potency turn out when `Cc1ccccc1/C=C/c1cc[n+](C)cc1` was run?
A: inconclusive: 56.2 µM [inhibitor, partial curve, poor fit]

Q: For `O=C(Nc1cc(S(=O)(=O)N2CCOCC2)ccc1N1CCCCC1)c1ccc(Cl)cc1`, which Potency is on record?
A: inconclusive: 31.6 µM [inhibitor, partial curve, poor fit]

Q: With `Cc1ccccc1Nc1c(-c2ccco2)nc2c(C)cccn12` as the compound, how does the Potency read?
A: inconclusive: 50.1 µM [inhibitor, partial curve, poor fit]

Q: `O=C(c1cccc(C(F)(F)F)c1)C1CCCN(Cc2cccn2-c2ncccn2)C1` (stereo not drawn) was tested. Which “activity change, negative = inhibition” value did it give?
A: inactive: -2.72%

Q: `Cn1nc(C2CCNC2)c2c(C(=O)NCC(F)(F)F)cc(C3CC3)nc21` (stereo not drawn) was tested. Which Potency did it give?
A: inconclusive: 2.85 µM [inhibitor, single point]

Q: `Cc1n[nH]c(C)c1S(=O)(=O)N(CC(=O)Nc1ccc(C(F)(F)F)cc1)c1ccc(C(C)C)cc1` was tested. Which Potency did it give?
A: inconclusive: 35.5 µM [inhibitor, partial curve, poor fit]

Q: `COc1ccc(CN(C)C(=O)c2ccc(OCC(=O)Nc3cccc(C(F)(F)F)c3)c(OC)c2)c(OC)c1` was tested. Which Potency did it give?
A: inconclusive: 3.16 µM [inhibitor, full curve, poor fit]

Q: `Cc1ccc(CS(=O)(=O)c2ncc(Cl)c(C(=O)Nc3nc4ccc(C)cc4s3)n2)cc1` was tested. Which Potency did it give?
A: inconclusive: 2.51 µM [inhibitor, full curve, poor fit]

Q: With `CS(=O)(=O)c1ccc2nc(NC(=O)CSCc3ccc(Cl)cc3)sc2c1` as the compound, how does the Potency read?
A: inconclusive: 39.8 µM [inhibitor, partial curve, poor fit]

Q: For `COc1ccc(-c2cc(C(=O)NNC(=S)NC(=O)c3c(-c4ccccc4)noc3C)[nH]n2)cc1`, which Potency is on record?
A: active: 11.2 µM

Q: With `CCOC(=O)c1c(CSc2ccccc2)n(C)c2cc(Br)c(OCC(O)CNC3CCCCC3)cc12` (stereo not drawn) as the compound, how does the Potency read?
A: inconclusive: 50.1 µM [inhibitor, partial curve, poor fit]

Q: Which “activity change, negative = inhibition” value does the source give for `O=C(c1ccc(Cl)c(S(=O)(=O)N2CCc3ccccc3C2)c1)N1CCN(c2ccccc2)CC1` here?
A: inactive: -4.51%

Q: How did the Potency turn out when `COc1ccc(C)c2sc(N(Cc3cccnc3)C(=O)C3CCCCC3)nc12` was run?
A: inconclusive: 100 µM [inhibitor, partial curve, poor fit]

Q: With `Cc1c(O)c(S(=O)c2ccccc2)c(=O)n(-c2ccccc2)c1-c1ccccc1` (stereo not drawn) as the compound, how does the Potency read?
A: inconclusive: 39.8 µM [inhibitor, partial curve]

Q: Which Potency does the source give for `O=C(c1cc2ccccc2[nH]1)N1CCCC(c2nc(CCOCC3CC3)no2)C1` (stereo not drawn) here?
A: inconclusive: 10 µM [inhibitor, partial curve, poor fit]

Q: With `S=C1NC2(CCCCC2)N=C1c1ccc(Cl)c(Cl)c1` as the compound, how does the Potency read?
A: inconclusive: 7.94 µM [inhibitor, full curve, poor fit]

Q: With `Cc1ccc(CN2C(=O)N/C(=C\c3cccn3-c3cccc(C(=O)O)c3)C2=O)cc1` as the compound, how does the Potency read?
A: inconclusive: 44.7 µM [inhibitor, partial curve]

Q: `Cc1ncccc1C(=O)NCC12CCC=C1N(C)C(=O)CC2` (stereo not drawn) was tested. Which “activity change, negative = inhibition” value did it give?
A: inactive: 38.4%

Q: With `COc1ccccc1/C=C/C=C1\Oc2cc(OS(C)(=O)=O)ccc2C1=O` as the compound, how does the Potency read?
A: inconclusive: 50.1 µM [inhibitor, partial curve, poor fit]
